Data as given in patent US20180320217A1, “METHODS FOR SAMPLING AND MEASURING ORAL LAVAGE PROTEINS” (The Procter & Gamble Company, priority 2017, published 2018).

Test system: proteins in oral lavage
Assay: Abundance of proteins in human oral lavage (SomaLogic), TABLE 1
Type: in vivo
Conditions: for Means (Original Scale) High bleeder BL: high bleeders (gingivitis); for Means (Original Scale) High bleeder BL / Means (Original Scale) Low bleeder BL: baseline; for Means (Original Scale) Low bleeder BL: low bleeders (healthy); for Fold Change High bleeder W4 vs High bleeder BL / Fold Change High bleeder BL vs Low bleeder BL: oral lavage
[1] = abundance in oral lavage, high bleeders, week 4 of investigative products
[2] = high bleeders, week 4 of treatment vs baseline
[3] = high vs low bleeders at baseline
[4] = high bleeders vs low bleeders at baseline
[5] = week 4 of investigative products vs baseline, high bleeders

B1: Tumor necrosis factor receptor superfamily member 6 (protein, UniProt P25445 26-335, looked up)
Tumor necrosis factor …: QVTDINSKGLELRKTVTTVETQNLEGLHHDGQFCHKPCPPGERKARDCTVNGDEPDCVPCQEGKEYTDKAHFSSKCRRCRLCDEGHGLEVEINCTRTQNTKCRCKPNFFCNSTVCEHCDPCTKCEHGIIKECTLTSNTKCKEEGSRSNLGWLCLLLLPIPLIVWVKRKEVQKTCRKHRKENQGSHESPTLNPETVAINLSDVDLSKYITTIAGVMTLSQVKGFVRKNGVNEAKIDEIKNDNVQDTAEQKVQLLRNWHQLHGKKEAYDTLIKDLKKANLCTLAEKIQTIILKDITSDSENSNFRNEIQSLV
For B1, the “Means (Original Scale) High bleeder BL” value (abundance in oral lavage) was 1977, the “Means (Original Scale) High bleeder W4” value [1] was 1099 and the “Means (Original Scale) Low bleeder BL” value (abundance in oral lavage) was 586. The “Fold Change High bleeder W4 vs High bleeder BL” value (from here on “Fold Change High bleeder W4”) [2] was 0.60 and the “Fold Change High bleeder BL vs Low bleeder BL” value (from here on “Fold Change High bleeder BL”) [3] was 3.04.

B2: Tyrosine-protein kinase Lyn (protein, UniProt P07948 2-512, looked up)
Tyrosine-protein kinase Lyn: GCIKSKGKDSLSDDGVDLKTQPVRNTERTIYVRDPTSNKQQRPVPESQLLPGQRFQTKDPEEQGDIVVALYPYDGIHPDDLSFKKGEKMKVLEEHGEWWKAKSLLTKKEGFIPSNYVAKLNTLETEEWFFKDITRKDAERQLLAPGNSAGAFLIRESETLKGSFSLSVRDFDPVHGDVIKHYKIRSLDNGGYYISPRITFPCISDMIKHYQKQADGLCRRLEKACISPKPQKPWDKDAWEIPRESIKLVKRLGAGQFGEVWMGYYNNSTKVAVKTLKPGTMSVQAFLEEANLMKTLQHDKLVRLYAVVTREEPIYIITEYMAKGSLLDFLKSDEGGKVLLPKLIDFSAQIAEGMAYIERKNYIHRDLRAANVLVSESLMCKIADFGLARVIEDNEYTAREGAKFPIKWTAPEAINFGCFTIKSDVWSFGILLYEIVTYGKIPYPGRTNADVMTALSQGYRMPRVENCPDELYDIMKMCWKEKAEERPTFDYLQSVLDDFYTATEGQYQQQP
In the case of B2, the “Means (Original Scale) High bleeder BL” value (abundance in oral lavage) is reported as 727, the “Means (Original Scale) Low bleeder BL” value (abundance in oral lavage) is reported as 107 and the “Means (Original Scale) High bleeder W4” value (in vivo, po) is reported as 457. For the same molecule, the “Fold Change High bleeder W4” value [2] was 0.55 and the “Fold Change High bleeder BL” value [3] was 10.17.

B3: Tyrosine-protein kinase receptor TYRO3 (protein, UniProt Q06418 41-890, looked up)
Tyrosine-protein kinase …: AGLKLMGAPVKLTVSQGQPVKLNCSVEGMEEPDIQWVKDGAVVQNLDQLYIPVSEQHWIGFLSLKSVERSDAGRYWCQVEDGGETEISQPVWLTVEGVPFFTVEPKDLAVPPNAPFQLSCEAVGPPEPVTIVWWRGTTKIGGPAPSPSVLNVTGVTQSTMFSCEAHNLKGLASSRTATVHLQALPAAPFNITVTKLSSSNASVAWMPGADGRALLQSCTVQVTQAPGGWEVLAVVVPVPPFTCLLRDLVPATNYSLRVRCANALGPSPYADWVPFQTKGLAPASAPQNLHAIRTDSGLILEWEEVIPEAPLEGPLGPYKLSWVQDNGTQDELTVEGTRANLTGWDPQKDLIVRVCVSNAVGCGPWSQPLVVSSHDRAGQQGPPHSRTSWVPVVLGVLTALVTAAALALILLRKRRKETRFGQAFDSVMARGEPAVHFRAARSFNRERPERIEATLDSLGISDELKEKLEDVLIPEQQFTLGRMLGKGEFGSVREAQLKQEDGSFVKVAVKMLKADIIASSDIEEFLREAACMKEFDHPHVAKLVGVSLRSRAKGRLPIPMVILPFMKHGDLHAFLLASRIGENPFNLPLQTLIRFMVDIACGMEYLSSRNFIHRDLAARNCMLAEDMTVCVADFGLSRKIYSGDYYRQGCASKLPVKWLALESLADNLYTVQSDVWAFGVTMWEIMTRGQTPYAGIENAEIYNYLIGGNRLKQPPECMEDVYDLMYQCWSADPKQRPSFTCLRMELENILGQLSVLSASQDPLYINIERAEEPTAGGSLELPGRDQPYSGAGDGSGMGAVGGTPSDCRYILTPGGLAEQPGQAEHQPESPLNETQRLLLLQQGLLPHSSC
With B3 the “Means (Original Scale) High bleeder BL” value (abundance in oral lavage) was 95, the “Means (Original Scale) Low bleeder BL” value (abundance in oral lavage) was 50 and the “Means (Original Scale) High bleeder W4” value (in vivo, po) was 67. The “Fold Change High bleeder W4” value [2] was 0.74 and the “Fold Change High bleeder BL” value [3] was 1.82.

B4: Ubiquitin-conjugating enzyme E2 G2 (protein, UniProt P60604 2-165, looked up)
Ubiquitin-conjugating enzyme …: AGTALKRLMAEYKQLTLNPPEGIVAGPMNEENFFEWEALIMGPEDTCFEFGVFPAILSFPLDYPLSPPKMRFTCEMFHPNIYPDGRVCISILHAPGDDPMGYESSAERWSPVQSVEKILLSVVSMLAEPNDESGANVDASKMWRDDREQFYKIAKQIVQKSLGL
In the case of B4, the “Means (Original Scale) High bleeder BL” value (abundance in oral lavage) is reported as 1599, the “Means (Original Scale) High bleeder W4” value [1] is reported as 890 and the “Means (Original Scale) Low bleeder BL” value (abundance in oral lavage) is reported as 355. The “Fold Change High bleeder W4” value [2] was 0.62 and the “Fold Change High bleeder BL” value [3] was 4.04.

B5: Vascular endothelial growth factor D (protein, UniProt O43915 89-205, looked up)
Vascular endothelial growth …: FAATFYDIETLKVIDEEWQRTQCSPRETCVEVASELGKSTNTFFKPPCVNVFRCGGCCNEESLICMNTSTSYISKQLFEISVPLTSVPELVPVKVANHTGCKCLPTAPRHPYSIIRR
In the case of B5, the “Means (Original Scale) High bleeder BL” value (abundance in oral lavage) is reported as 296, the “Means (Original Scale) High bleeder W4” value [1] is reported as 144 and the “Means (Original Scale) Low bleeder BL” value (abundance in oral lavage) is reported as 61. The “Fold Change High bleeder W4” value [2] was 0.54 and the “Fold Change High bleeder BL” value [3] was 4.24.

B6: Vesicular integral-membrane protein VIP36 (protein, UniProt Q12907 45-356, looked up)
Vesicular integral-membrane …: DITDGNSEHLKREHSLIKPYQGVGSSSMPLWDFQGSTMLTSQYVRLTPDERSKEGSIWNHQPCFLKDWEMHVHFKVHGTGKKNLHGDGIALWYTRDRLVPGPVFGSKDNFHGLAIFLDTYPNDETTERVFPYISVMVNNGSLSYDHSKDGRWTELAGCTADFRNRDHDTFLAVRYSRGRLTVMTDLEDKNEWKNCIDITGVRLPTGYYFGASAGTGDLSDNHDIISMKLFQLMVEHTPDEESIDWTKIEPSVNFLKSPKDNVDDPTGNFRSGPLTGWRVFLLLLCALLGIVVCAVVGAVVFQKRQERNKRFY
In the case of B6, the “Means (Original Scale) High bleeder BL” value (abundance in oral lavage) is reported as 689, the “Means (Original Scale) High bleeder W4” value [1] is reported as 356 and the “Means (Original Scale) Low bleeder BL” value (abundance in oral lavage) is reported as 107. For the same molecule, the “Fold Change High bleeder W4” value [2] was 0.62 and the “Fold Change High bleeder BL” value [3] was 4.42.

B7: ATP synthase subunit O, mitochondrial (protein, UniProt P48047 24-213, looked up)
ATP synthase peripheral stalk …: FAKLVRPPVQVYGIEGRYATALYSAASKQNKLEQVEKELLRVAQILKEPKVAASVLNPYVKRSIKVKSLNDITAKERFSPLTTNLINLLAENGRLSNTQGVVSAFSTMMSVHRGEVPCTVTSASPLEEATLSELKTVLKSFLSQGQVLKLEAKTDPSILGGMIVRIGEKYVDMSVKTKIQKLGRAMREIV
In the case of B7, the “Means (Original Scale) High bleeder BL” value (abundance in oral lavage) is reported as 469, the “Means (Original Scale) High bleeder W4” value [1] is reported as 325 and the “Means (Original Scale) Low bleeder BL” value (abundance in oral lavage) is reported as 331. The “Fold Change High bleeder BL” value [4] was 1.47 and the “Fold Change High bleeder W4” value [5] was 0.70.

B8: WNT1-inducible-signaling pathway protein 3 (protein, UniProt O95389 24-354, looked up)
Cellular communication …: TGPLDTTPEGRPGEVSDAPQRKQFCHWPCKCPQQKPRCPPGVSLVRDGCGCCKICAKQPGEICNEADLCDPHKGLYCDYSVDRPRYETGVCAYLVAVGCEFNQVHYHNGQVFQPNPLFSCLCVSGAIGCTPLFIPKLAGSHCSGAKGGKKSDQSNCSLEPLLQQLSTSYKTMPAYRNLPLIWKKKCLVQATKWTPCSRTCGMGISNRVTNENSNCEMRKEKRLCYIQPCDSNILKTIKIPKGKTCQPTFQLSKAEKFVFSGCSSTQSYKPTFCGICLDKRCCIPNKSKMITIQFDCPNEGSFKWKMLWITSCVCQRNCREPGDIFSELKIL
In the case of B8, the “Means (Original Scale) High bleeder BL” value (abundance in oral lavage) is reported as 194, the “Means (Original Scale) High bleeder W4” value [1] is reported as 123 and the “Means (Original Scale) Low bleeder BL” value (abundance in oral lavage) is reported as 63. For the same molecule, the “Fold Change High bleeder W4” value [2] was 0.70 and the “Fold Change High bleeder BL” value [3] was 2.78.

B9: X-linked interleukin-1 receptor accessory protein-like 2 (protein, UniProt Q9NP60 17-686, looked up)
X-linked interleukin-1 …: TNLKMVSKRNSVDGCIDWSVDLKTYMALAGEPVRVKCALFYSYIRTNYSTAQSTGLRLMWYKNKGDLEEPIIFSEVRMSKEEDSIWFHSAEAQDSGFYTCVLRNSTYCMKVSMSLTVAENESGLCYNSRIRYLEKSEVTKRKEISCPDMDDFKKSDQEPDVVWYKECKPKMWRSIIIQKGNALLIQEVQEEDGGNYTCELKYEGKLVRRTTELKVTALLTDKPPKPLFPMENQPSVIDVQLGKPLNIPCKAFFGFSGESGPMIYWMKGEKFIEELAGHIREGEIRLLKEHLGEKEVELALIFDSVVEADLANYTCHVENRNGRKHASVLLRKKDLIYKIELAGGLGAIFLLLVLLVVIYKCYNIELMLFYRQHFGADETNDDNKEYDAYLSYTKVDQDTLDCDNPEEEQFALEVLPDVLEKHYGYKLFIPERDLIPSGTYMEDLTRYVEQSRRLIIVLTPDYILRRGWSIFELESRLHNMLVSGEIKVILIECTELKGKVNCQEVESLKRSIKLLSLIKWKGSKSSKLNSKFWKHLVYEMPIKKKEMLPRCHVLDSAEQGLFGELQPIPSIAMTSTSATLVSSQADLPEFHPSDSMQIRHCCRGYKHEIPATTLPVPSLGNHHTYCNLPLTLLNGQLPLNNTLKDTQEFHRNSSLLPLSSKELSFTSDIW
B9 was tested, and the “Means (Original Scale) High bleeder BL” value (abundance in oral lavage) was 347, the “Means (Original Scale) High bleeder W4” value [1] was 224 and the “Means (Original Scale) Low bleeder BL” value (abundance in oral lavage) was 112. The “Fold Change High bleeder W4” value [2] was 0.70 and the “Fold Change High bleeder BL” value [3] was 2.77.

B10: ATP-dependent RNA helicase DDX19B (protein, UniProt Q9UMR2 2-479, looked up)
ATP-dependent RNA helicase …: ATDSWALAVDEQEAAAESLSNLHLKEEKIKPDTNGAVVKTNANAEKTDEEEKEDRAAQSLLNKLIRSNLVDNTNQVEVLQRDPNSPLYSVKSFEELRLKPQLLQGVYAMGFNRPSKIQENALPLMLAEPPQNLIAQSQSGTGKTAAFVLAMLSQVEPANKYPQCLCLSPTYELALQTGKVIEQMGKFYPELKLAYAVRGNKLERGQKISEQIVIGTPGTVLDWCSKLKFIDPKKIKVFVLDEADVMIATQGHQDQSIRIQRMLPRNCQMLLFSATFEDSVWKFAQKVVPDPNVIKLKREEETLDTIKQYYVLCSSRDEKFQALCNLYGAITIAQAMIFCHTRKTASWLAAELSKEGHQVALLSGEMMVEQRAAVIERFREGKEKVLVTTNVCARGIDVEQVSVVINFDLPVDKDGNPDNETYLHRIGRTGRFGKRGLAVNMVDSKHSMNILNRIQEHFNKKIERLDTDDLDEIEKIAN
For B10, the “Means (Original Scale) High bleeder BL” value (abundance in oral lavage) was 220, the “Means (Original Scale) High bleeder W4” value [1] was 116 and the “Means (Original Scale) Low bleeder BL” value (abundance in oral lavage) was 55. For the same molecule, the “Fold Change High bleeder BL” value [4] was 3.17 and the “Fold Change High bleeder W4” value [5] was 0.63.

B11: Bone morphogenetic protein 7 (protein, UniProt P18075 293-431, looked up)
Bone morphogenetic protein 7: STGSKQRSQNRSKTPKNQEALRMANVAENSSSDQRQACKKHELYVSFRDLGWQDWIIAPEGYAAYYCEGECAFPLNSYMNATNHAIVQTLVHFINPETVPKPCCAPTQLNAISVLYFDDSSNVILKKYRNMVVRACGCH
B11 was tested, and the “Means (Original Scale) High bleeder BL” value (abundance in oral lavage) was 66, the “Means (Original Scale) High bleeder W4” value [1] was 50 and the “Means (Original Scale) Low bleeder BL” value (abundance in oral lavage) was 32. For the same molecule, the “Fold Change High bleeder BL” value [4] was 1.90 and the “Fold Change High bleeder W4” value [5] was 0.80.
